Here are results for 8 substances from PMC8143632.

Chains of the proteins cited; added tags and fusions are not shown.
UniProt Q13547: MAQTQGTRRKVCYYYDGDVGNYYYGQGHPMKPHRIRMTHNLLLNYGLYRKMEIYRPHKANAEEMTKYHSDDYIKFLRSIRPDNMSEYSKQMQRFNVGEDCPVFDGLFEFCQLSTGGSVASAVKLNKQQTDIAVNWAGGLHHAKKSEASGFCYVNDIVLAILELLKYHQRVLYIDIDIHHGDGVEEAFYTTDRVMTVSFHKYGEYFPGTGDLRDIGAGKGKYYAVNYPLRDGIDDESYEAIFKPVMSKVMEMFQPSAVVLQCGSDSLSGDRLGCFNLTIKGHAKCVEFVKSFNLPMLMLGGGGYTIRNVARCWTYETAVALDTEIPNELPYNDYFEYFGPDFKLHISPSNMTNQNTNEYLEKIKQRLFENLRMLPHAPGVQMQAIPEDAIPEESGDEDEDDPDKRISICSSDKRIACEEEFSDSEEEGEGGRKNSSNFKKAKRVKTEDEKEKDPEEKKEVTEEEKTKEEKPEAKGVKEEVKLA
UniProt Q92769: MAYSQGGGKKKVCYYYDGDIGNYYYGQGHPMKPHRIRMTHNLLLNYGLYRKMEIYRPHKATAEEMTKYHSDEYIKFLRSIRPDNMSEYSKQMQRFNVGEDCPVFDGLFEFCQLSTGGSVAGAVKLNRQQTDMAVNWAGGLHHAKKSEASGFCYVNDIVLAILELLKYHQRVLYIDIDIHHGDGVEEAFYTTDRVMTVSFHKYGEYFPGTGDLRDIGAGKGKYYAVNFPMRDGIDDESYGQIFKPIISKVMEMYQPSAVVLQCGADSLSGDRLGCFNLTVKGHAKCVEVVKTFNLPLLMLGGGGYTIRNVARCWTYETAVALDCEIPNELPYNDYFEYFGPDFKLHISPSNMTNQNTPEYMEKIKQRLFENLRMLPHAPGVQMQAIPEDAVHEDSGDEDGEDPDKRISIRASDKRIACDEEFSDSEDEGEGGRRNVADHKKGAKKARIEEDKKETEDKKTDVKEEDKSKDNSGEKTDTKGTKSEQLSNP
UniProt O00505: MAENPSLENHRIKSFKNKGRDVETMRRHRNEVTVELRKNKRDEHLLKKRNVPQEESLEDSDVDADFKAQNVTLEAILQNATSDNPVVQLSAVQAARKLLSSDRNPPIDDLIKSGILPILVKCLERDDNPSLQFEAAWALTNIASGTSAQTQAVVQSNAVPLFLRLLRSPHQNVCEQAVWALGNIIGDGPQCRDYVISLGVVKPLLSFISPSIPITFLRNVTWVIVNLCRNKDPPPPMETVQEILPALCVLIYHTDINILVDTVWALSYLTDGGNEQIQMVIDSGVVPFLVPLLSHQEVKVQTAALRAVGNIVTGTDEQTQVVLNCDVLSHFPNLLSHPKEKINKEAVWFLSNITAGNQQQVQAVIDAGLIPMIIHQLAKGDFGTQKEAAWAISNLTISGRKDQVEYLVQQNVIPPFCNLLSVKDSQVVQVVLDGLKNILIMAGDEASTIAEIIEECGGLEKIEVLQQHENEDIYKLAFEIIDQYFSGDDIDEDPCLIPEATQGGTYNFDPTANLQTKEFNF
UniProt O00629: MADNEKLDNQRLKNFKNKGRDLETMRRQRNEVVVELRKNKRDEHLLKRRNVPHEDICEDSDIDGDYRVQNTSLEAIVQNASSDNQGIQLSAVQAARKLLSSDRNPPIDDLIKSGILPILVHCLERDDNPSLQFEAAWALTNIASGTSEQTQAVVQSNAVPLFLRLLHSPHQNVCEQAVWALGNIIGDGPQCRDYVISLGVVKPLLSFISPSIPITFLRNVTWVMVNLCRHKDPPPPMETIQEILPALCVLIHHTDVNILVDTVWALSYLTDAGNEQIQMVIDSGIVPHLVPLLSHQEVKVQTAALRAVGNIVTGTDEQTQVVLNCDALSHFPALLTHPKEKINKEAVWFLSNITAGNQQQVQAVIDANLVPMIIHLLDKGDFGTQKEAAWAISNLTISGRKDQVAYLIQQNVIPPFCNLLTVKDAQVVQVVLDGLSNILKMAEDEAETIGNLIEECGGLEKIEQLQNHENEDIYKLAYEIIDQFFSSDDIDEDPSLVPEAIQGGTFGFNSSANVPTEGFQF
UniProt Q14974: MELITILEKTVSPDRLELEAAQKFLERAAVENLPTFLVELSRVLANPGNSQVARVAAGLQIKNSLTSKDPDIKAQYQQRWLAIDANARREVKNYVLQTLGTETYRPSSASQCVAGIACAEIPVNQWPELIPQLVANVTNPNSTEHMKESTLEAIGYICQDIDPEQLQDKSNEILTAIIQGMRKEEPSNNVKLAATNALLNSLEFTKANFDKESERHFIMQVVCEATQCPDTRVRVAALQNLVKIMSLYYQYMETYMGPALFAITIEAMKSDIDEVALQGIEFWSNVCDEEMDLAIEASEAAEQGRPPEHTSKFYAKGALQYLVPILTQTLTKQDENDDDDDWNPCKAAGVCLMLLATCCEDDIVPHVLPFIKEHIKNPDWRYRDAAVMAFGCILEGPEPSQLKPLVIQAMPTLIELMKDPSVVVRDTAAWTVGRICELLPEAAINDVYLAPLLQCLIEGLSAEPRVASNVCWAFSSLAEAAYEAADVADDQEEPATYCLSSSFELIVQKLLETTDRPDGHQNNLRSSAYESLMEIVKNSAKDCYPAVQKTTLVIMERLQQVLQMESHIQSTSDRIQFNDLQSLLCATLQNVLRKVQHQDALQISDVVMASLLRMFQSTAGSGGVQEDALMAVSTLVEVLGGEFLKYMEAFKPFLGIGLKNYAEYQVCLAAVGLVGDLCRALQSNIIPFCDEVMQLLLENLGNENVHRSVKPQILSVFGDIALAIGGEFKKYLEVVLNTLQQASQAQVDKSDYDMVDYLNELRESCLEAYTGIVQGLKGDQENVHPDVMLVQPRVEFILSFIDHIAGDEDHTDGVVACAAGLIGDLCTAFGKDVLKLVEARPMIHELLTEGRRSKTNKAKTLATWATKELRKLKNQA
UniProt Q96QT6: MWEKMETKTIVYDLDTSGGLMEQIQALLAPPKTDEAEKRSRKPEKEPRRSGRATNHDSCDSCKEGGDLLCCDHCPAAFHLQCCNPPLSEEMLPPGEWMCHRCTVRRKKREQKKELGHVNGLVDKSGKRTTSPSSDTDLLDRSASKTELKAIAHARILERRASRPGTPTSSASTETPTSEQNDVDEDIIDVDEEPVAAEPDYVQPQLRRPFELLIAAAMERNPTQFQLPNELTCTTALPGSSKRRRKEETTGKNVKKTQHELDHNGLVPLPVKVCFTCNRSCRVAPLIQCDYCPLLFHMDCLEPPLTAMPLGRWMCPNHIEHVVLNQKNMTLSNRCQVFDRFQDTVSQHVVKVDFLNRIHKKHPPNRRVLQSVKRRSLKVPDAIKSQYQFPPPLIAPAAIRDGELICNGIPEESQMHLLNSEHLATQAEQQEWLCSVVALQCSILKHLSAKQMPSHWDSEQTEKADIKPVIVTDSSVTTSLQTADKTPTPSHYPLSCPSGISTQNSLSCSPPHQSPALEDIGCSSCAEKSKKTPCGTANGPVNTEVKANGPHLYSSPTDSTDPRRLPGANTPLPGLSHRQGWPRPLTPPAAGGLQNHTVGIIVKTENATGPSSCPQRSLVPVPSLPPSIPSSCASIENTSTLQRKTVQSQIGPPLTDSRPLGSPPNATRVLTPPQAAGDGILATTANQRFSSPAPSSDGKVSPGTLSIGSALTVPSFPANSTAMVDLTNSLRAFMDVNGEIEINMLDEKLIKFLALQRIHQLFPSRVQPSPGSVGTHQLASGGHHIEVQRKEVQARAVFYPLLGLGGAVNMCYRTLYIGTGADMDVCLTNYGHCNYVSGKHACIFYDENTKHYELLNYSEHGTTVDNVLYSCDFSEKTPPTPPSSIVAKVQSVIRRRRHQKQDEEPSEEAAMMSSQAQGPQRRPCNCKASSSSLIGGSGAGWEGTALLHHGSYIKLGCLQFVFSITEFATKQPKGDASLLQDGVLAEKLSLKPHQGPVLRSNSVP
UniProt Q09028: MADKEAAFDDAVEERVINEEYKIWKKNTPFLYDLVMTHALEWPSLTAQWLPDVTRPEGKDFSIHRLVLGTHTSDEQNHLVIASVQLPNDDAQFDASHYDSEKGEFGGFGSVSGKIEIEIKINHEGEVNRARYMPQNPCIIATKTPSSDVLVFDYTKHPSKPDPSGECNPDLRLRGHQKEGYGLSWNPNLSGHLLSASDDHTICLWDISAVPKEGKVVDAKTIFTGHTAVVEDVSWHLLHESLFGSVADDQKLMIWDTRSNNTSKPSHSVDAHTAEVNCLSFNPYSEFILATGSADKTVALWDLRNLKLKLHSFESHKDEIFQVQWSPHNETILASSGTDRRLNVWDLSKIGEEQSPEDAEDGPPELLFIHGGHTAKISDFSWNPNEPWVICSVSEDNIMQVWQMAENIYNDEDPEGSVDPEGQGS

What all share (experiment): affinity purification with mass spectrometry; Halo-tagged bait stably expressed in Flp-In-293 cells; lysate with HL-SAN nuclease 2 U/ml for 2 h at 4 °C; bait captured on Magne HaloTag Beads, eluted with AcTEV Protease; MudPIT; enrichment over cells without transgene by QSPEC (Z-statistic >= 3 and log2 fold change >= 2)
In one assay the target is T1, SIN3B_2-HaloTag (human) (UniProt O75182).
T1 sequence: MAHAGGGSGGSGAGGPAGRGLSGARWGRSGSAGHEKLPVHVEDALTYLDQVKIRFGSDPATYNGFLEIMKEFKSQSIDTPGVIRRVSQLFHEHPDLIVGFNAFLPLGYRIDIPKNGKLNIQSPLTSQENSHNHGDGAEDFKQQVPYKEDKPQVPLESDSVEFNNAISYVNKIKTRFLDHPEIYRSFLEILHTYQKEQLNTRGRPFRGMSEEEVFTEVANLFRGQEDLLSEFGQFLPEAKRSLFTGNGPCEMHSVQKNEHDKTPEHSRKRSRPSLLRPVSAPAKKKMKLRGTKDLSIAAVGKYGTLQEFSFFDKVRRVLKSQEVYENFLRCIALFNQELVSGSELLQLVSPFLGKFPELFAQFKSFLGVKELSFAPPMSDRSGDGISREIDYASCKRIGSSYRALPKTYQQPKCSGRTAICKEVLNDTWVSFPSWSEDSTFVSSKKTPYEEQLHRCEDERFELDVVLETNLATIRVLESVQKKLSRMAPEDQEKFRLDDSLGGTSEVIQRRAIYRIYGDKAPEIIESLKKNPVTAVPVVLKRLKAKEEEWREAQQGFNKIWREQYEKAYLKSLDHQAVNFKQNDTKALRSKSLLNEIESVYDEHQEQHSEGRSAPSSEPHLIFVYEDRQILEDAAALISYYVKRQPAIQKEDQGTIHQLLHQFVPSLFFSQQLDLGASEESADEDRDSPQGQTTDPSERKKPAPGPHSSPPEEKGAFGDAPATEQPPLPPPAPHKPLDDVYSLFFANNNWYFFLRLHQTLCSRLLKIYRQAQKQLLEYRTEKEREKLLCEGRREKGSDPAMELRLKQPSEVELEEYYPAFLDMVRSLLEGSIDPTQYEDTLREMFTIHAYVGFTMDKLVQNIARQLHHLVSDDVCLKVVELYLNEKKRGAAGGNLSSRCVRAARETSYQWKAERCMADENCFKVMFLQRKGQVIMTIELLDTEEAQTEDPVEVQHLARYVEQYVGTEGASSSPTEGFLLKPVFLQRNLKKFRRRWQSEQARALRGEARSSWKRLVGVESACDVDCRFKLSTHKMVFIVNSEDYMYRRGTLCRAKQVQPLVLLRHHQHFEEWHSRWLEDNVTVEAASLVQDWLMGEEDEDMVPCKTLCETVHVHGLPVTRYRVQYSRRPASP

A further assay concerns the target T2, SIN3B_1-HaloTag (human) (UniProt O75182).
T2 sequence: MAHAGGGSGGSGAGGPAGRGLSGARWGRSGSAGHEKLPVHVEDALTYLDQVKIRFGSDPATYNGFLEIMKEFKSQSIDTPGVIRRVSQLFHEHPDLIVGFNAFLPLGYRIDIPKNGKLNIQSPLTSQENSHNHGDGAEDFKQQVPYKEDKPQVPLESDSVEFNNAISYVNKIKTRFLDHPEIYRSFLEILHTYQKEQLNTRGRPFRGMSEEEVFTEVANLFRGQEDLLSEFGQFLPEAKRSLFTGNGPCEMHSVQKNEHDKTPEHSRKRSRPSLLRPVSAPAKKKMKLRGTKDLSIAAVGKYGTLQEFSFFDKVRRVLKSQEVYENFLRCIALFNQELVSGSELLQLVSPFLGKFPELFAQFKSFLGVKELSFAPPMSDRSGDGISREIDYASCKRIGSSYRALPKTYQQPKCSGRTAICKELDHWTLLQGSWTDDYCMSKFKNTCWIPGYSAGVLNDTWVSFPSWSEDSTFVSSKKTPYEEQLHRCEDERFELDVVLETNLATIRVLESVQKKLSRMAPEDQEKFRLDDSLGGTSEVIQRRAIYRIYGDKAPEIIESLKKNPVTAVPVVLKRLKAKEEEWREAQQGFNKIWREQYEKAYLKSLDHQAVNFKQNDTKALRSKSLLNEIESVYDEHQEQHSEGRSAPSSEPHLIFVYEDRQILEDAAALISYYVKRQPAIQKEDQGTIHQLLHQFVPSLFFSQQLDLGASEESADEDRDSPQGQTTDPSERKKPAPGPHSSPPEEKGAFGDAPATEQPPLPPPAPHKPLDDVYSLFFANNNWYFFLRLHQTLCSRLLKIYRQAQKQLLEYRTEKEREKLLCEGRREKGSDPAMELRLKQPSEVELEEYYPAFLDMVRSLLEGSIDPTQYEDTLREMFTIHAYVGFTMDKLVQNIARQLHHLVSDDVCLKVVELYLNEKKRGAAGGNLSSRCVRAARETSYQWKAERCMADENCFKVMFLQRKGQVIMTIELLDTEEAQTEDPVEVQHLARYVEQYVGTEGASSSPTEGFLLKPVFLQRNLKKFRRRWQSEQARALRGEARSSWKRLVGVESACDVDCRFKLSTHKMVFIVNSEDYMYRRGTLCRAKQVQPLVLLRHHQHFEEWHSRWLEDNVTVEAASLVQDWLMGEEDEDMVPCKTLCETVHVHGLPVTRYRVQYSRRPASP

The target in the next assay is T3, SIN3A-HaloTag (human) (UniProt Q96ST3).
T3 sequence: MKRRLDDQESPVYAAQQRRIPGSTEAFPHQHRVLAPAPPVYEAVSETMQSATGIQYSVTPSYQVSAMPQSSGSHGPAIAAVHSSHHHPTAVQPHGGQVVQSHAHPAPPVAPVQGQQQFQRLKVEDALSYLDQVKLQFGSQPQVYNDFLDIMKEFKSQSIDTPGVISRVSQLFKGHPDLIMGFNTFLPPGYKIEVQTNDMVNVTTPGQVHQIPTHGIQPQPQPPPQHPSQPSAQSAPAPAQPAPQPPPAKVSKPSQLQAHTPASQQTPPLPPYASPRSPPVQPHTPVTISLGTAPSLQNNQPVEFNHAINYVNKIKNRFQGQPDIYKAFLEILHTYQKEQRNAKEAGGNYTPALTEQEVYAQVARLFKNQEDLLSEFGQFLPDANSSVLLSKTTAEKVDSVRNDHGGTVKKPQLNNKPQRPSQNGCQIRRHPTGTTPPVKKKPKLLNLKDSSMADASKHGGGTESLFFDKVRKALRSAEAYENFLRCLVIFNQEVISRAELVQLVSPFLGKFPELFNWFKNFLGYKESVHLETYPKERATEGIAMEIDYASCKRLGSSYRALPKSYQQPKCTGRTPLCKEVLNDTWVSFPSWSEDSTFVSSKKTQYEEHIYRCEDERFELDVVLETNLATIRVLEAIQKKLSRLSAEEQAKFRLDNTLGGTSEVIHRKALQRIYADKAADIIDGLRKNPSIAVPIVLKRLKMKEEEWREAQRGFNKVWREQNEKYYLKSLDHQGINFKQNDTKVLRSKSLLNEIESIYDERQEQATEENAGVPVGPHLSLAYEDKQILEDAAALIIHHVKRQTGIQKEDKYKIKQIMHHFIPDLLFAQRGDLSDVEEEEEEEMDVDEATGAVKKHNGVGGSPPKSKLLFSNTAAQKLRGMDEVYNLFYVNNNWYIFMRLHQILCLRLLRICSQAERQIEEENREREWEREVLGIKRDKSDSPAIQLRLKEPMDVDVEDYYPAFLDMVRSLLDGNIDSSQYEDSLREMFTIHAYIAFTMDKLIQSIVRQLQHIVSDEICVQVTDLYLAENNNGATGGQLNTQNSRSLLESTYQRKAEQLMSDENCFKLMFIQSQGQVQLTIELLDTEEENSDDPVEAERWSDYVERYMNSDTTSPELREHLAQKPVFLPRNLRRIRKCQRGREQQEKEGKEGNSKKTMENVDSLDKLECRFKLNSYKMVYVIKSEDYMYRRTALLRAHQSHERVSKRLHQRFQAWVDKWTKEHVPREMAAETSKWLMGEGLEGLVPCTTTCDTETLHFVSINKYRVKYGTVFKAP

No constants are given. Whether binding was seen depends on the method and setting. Binding seen in cells or lysates may run through a third protein. These calls come from enrichment with a bait or labelling near it, and not all partners need be listed. For some assays here: No binding means not detected with the bait. Sequences can lack the tags named with a protein.

Take HDAC1 (from UniProt Q13547 1-482): the binding entry with SIN3B_2-HaloTag (human) is “binds”; with SIN3B_1-HaloTag (human) it was “binds weakly”; with SIN3A-HaloTag (human) it was “binds”.
As to HDAC2 (from UniProt Q92769 1-488), the figures for the binding entry with SIN3B_2-HaloTag (human), in the assay with SIN3B_1-HaloTag (human) and with SIN3A-HaloTag (human) were “binds”, “binds weakly” and “binds”, respectively.
Turning to KPNA3 (from UniProt O00505 1-521), the figures for the binding entry in the assay with SIN3B_2-HaloTag (human), in the assay with SIN3B_1-HaloTag (human) and with SIN3A-HaloTag (human) were “binds”, “binds” and “no binding”, respectively.
Take KPNA4 (from UniProt O00629 1-521): the binding result was “binds” in the assay with SIN3B_2-HaloTag (human), “binds” in the assay with SIN3B_1-HaloTag (human) and “no binding” with SIN3A-HaloTag (human).
On to KPNB1 (from UniProt Q14974 1-876), for which the binding entry in the assay with SIN3B_2-HaloTag (human) is “binds”; with SIN3B_1-HaloTag (human) it was “binds”; with SIN3A-HaloTag (human), “no binding”.
PHF12 (from UniProt Q96QT6 1-1004): in the assay with SIN3B_2-HaloTag (human), the binding result is “binds”.
On to RBBP4 (from UniProt Q09028 1-425), for which the binding result with SIN3B_2-HaloTag (human), with SIN3B_1-HaloTag (human) and with SIN3A-HaloTag (human) was “binds” in each case.
Take TNRC18 (from UniProt O15417 1-2968): in the assay with SIN3A-HaloTag (human), the binding entry is reported as “binds”.
